Results reported in patent US20200360391A1, “Medicinal Composition for Treating Intractable Heart Disease” (Osaka University, priority 2016, published 2020).
Where a name gives a salt, the structure may show the parent alone. The name of at least one read-out is uncertain. At least one structure is not confirmed: it was looked up by name or label, or the drawing left a doubt.

What follows are compounds tested on spontaneous dilated cardiomyopathy (J2N-k) hamster model (assay: Spontaneous dilated cardiomyopathy (J2N-k) hamster model, 8-week administration from 20 weeks of age (Tests 1-3): echocardiography, body weight). Details: Test 1, p.o. b.i.d., NOAEL-based dose.
Description: The doses of pharmaceutical products were determined based on the no-observed-adverse-effect levels in a long-term toxicity study using rats. δ-Glycan-deficient spontaneous dilated cardiomyopathy (J2N-k) male hamsters (Japan SLC, Inc.) were delivered at 18 weeks of age. After a 2-week quarantine/acclimation, echocardiography was performed.
Each of the pharmaceutical products (A to K and O) was individually administered twice daily (at an interval of 8 hours or more) by oral gavage, and echocardiography was performed after 4 and 8 weeks (before dissection). Differences from the value before the start of administration (at the time of grouping) (amount of change: Δ) in each group were examined, and the cardiac function (EF value, FS %, etc.) was compared with that in the vehicle group (Group 1). Moreover, the heart was removed […] after the start of administration, and electron microscopy and RNA protein measurement were performed. Specimens for immunopathology were also collected and evaluated.
Each pharmaceutical product was individually suspended in 0.5% CMC-Na (sodium carboxymethylcellulose; Wako Pure Chemical Industries, Ltd.) before use, and administered. […] To Group 1 (control), 0.5% CNC-Na (vehicle) was administered.
Each pharmaceutical product was individually suspended in 0.5% CMC-Na (sodium carboxymethylcellulose; Wako Pure Chemical Industries, Ltd.) before use, and administered. Test substance G was suspended in distilled water before use, and administered.
Reason the doses were set (assuming that the adult body weight was 60 kg, the same amounts as the maximum clinical doses were set) • 1) The clinical dose of C (ozagrel; OZ) was 200 mg twice per day. The dose was thus set to 3.3 mg/kg twice per day. • 2) The clinical dose of D (cilostazol; CS) was 100 mg twice per day. The dose was thus set to 1.7 mg/kg twice per day. • 3) The clinical dose of E (pirfenidone; PF) was 600 mg three times per day, i.e., 1800 mg/day in total. The dose was thus set to 15 mg/kg twice per day. • 4) The clinical dose of G (nintedanib sulfonate; OB) was 150 mg twice per day. The dose was thus set to 2.5 mg/kg twice per day. • 5) The clinical dose of P (carvedilol; CV) was 10 mg twice per day. The dose was thus set to 0.17 mg/kg twice per day. • 6) Preparation 2 (PLGA⋅MS preparation of camostat; B⋅MS): the clinical dose of active substance camostat was 200 mg three times per day, i.e., 600 mg/day in total; thus, intermittent subcutaneous administration at a daily dose of 10 mg/kg once every 4 weeks, twice in total was set. The dose was 1/28 of the total oral dose amount.
The dose volume in oral administration was 5 mL/kg (the amount of liquid to be administered to each animal was calculated based on the most recent body weight), and administered by oral gavage using a polypropylene disposable syringe and a rat stomach tube.
The administration period of each pharmaceutical product was 8 weeks.

Compound | % FS 4 W | % FS 8 W | % FS value of change at 4 W compared with 0 W | % FS value of change at 8 W compared with 0 W | EF 4 W | EF 8 W | EF value of change at 4 W compared with 0 W | EF value of change at 8 W compared with 0 W
O=C1CCc2cc(OCCCCc3nnnn3C3CCCCC3)ccc2N1 [Compound D, Cilostazol] | 17 ± 1% | 16 ± 2% | <0 ± 2> % | <−1 ± 2> % | 43 ± 3% | 41 ± 3% | <0 ± 3> % | <−2 ± 4> %
CN(C)C(=O)COC(=O)Cc1ccc(OC(=O)c2ccc(NC(=N)N)cc2)cc1 [Compound B, Camostat mesilate] | 17 ± 1% | 16 ± 2% | <0 ± 1> % | <−1 ± 2> % | 42 ± 3% | 41 ± 3% | <−1 ± 3> % | <−3 ± 4> %
O=C(O)/C=C/c1ccc(Cn2ccnc2)cc1 [Compound C, Ozagrel hydrochloride hydrate] | 17 ± 1% | 17 ± 1% | <−1 ± 1> % | <0 ± 2> % | 43 ± 3% | 43 ± 2% | <−1 ± 3> % | <−1 ± 4> %

Same assay, conditions: Test 2, p.o. b.i.d., NOAEL-based dose

Compound | % FS 4 W | % FS 8 W | % FS value of change at 4 W compared with 0 W | % FS value of change at 8 W compared with 0 W | EF 4 W | EF 8 W | EF value of change at 4 W compared with 0 W | EF value of change at 8 W compared with 0 W
CC#CCC(C)[C@H](O)/C=C/[C@@H]1[C@H]2c3cccc(CCCC(=O)O)c3O[C@H]2C[C@H]1O (mixture of isomers) [Compound F, Beraprost sodium] | 16 ± 1% | 15 ± 1% | <1 ± 1> % | <−2 ± 1> % | 41 ± 3% | 39 ± 3% | <−1 ± 2> % | <−3 ± 2> %
CCCc1nn(C)c2c(=O)[nH]c(-c3cc(S(=O)(=O)N4CCN(C)CC4)ccc3OCC)nc12 [Compound I, Sildenafil citrate] | 17 ± 1% | 15 ± 1% | <0 ± 1> % | <−2 ± 1> % | 43 ± 3% | 39 ± 2% | <−1 ± 2> % | <−5 ± 2> %
COC(=O)c1ccc2c(c1)NC(=O)/C2=C(\Nc1ccc(N(C)C(=O)CN2CCN(C)CC2)cc1)c1ccccc1 [Compound G, Nintedanib ethanesulfonate] | 16 ± 2% | 15 ± 1% | <−1 ± 1> % | <−2 ± 2> % | 41 ± 4% | 39 ± 2% | <−2 ± 2> % | <−5 ± 2> %
Cn1c(=O)c2[nH]cnc2n(C)c1=O [Compound H, Theophylline] | 15 ± 1% | 14 ± 1% | <−2 ± 1> % | <−3 ± 2> % | 38 ± 2% | 36 ± 3% | <−5 ± 2> % | <−7 ± 4> %

Same assay, conditions: Test 2, p.o. b.i.d., NOAEL-based dose; listed as sildenafil

Compound | % FS 4 W | % FS value of change at 4 W compared with 0 W | EF 4 W
CCCc1nn(C)c2c(=O)[nH]c(-c3cc(S(=O)(=O)N4CCN(C)CC4)ccc3OCC)nc12 [Compound I, Sildenafil citrate] | significantly higher | significantly higher | significantly higher

Same assay, conditions: Test 2, p.o. b.i.d.; listed as sildenafil

Compound | LVIDs 8 W
CCCc1nn(C)c2c(=O)[nH]c(-c3cc(S(=O)(=O)N4CCN(C)CC4)ccc3OCC)nc12 [Compound I, Sildenafil citrate] | significantly lower

Same assay, conditions: Test 3, clinical dose

Compound | % FS 4 W | % FS 8 W | % FS value of change at 4 W compared with 0 W | % FS value of change at 8 W compared with 0 W | EF 4 W | EF 8 W | EF value of change at 4 W compared with 0 W | EF value of change at 8 W compared with 0 W
COc1ccccc1OCCNCC(O)COc1cccc2[nH]c3ccccc3c12 (stereo not shown) [Compound O, Carvedilol] | 16.7 ± 1.2% | 15.7 ± 1.5% | <−1.6 ± 0.7> % | <−2.6 ± 1.4> % | 42.2 ± 2.5% | 40.0 ± 3.2% | <−3.1 ± 1.4> % | <−5.3 ± 2.8> %
COC(=O)c1ccc2c(c1)NC(=O)/C2=C(\Nc1ccc(N(C)C(=O)CN2CCN(C)CC2)cc1)c1ccccc1 [Compound G, Nintedanib ethanesulfonate] | 16.3 ± 2.0% | 15.3 ± 1.7% | <−1.8 ± 1.3> % | <−3.0 ± 1.1> % | 41.4 ± 4.2% | 39.1 ± 3.7% | <−3.7 ± 2.8> % | <−6.2 ± 2.5> %
O=C1CCc2cc(OCCCCc3nnnn3C3CCCCC3)ccc2N1 [Compound D, Cilostazol] | 16.7 ± 1.9% | 15.1 ± 1.6% | <−1.8 ± 0.6> % | <−3.4 ± 0.7> % | 42.1 ± 3.7% | 38.7 ± 3.3% | <−3.6 ± 1.2> % | <−7.0 ± 1.3> %
O=C(O)/C=C/c1ccc(Cn2ccnc2)cc1 [Compound C, Ozagrel hydrochloride hydrate] | 16.1 ± 0.8% | 14.5 ± 0.9% | <−1.9 ± 0.9> % | <−3.5 ± 1.2> % | 41.0 ± 1.7% | 37.5 ± 2.1% | <−3.9 ± 1.9> % | <−7.4 ± 2.4> %

The compounds below were run on rat coronary artery complete ischemia model (assay: Model of ischemia (MI) by rat coronary artery complete ligation (Tests 1 and 2): echocardiography, body weight). Details: MI Test 1, NOAEL doses; 1 Day (grouping); mean ± S.D.

Compound | % FS | EF (%)
CC#CCC(C)[C@H](O)/C=C/[C@@H]1[C@H]2c3cccc(CCCC(=O)O)c3O[C@H]2C[C@H]1O (mixture of isomers) [Compound F, Beraprost sodium] | 25 ± 3% | 58 ± 5%
O=C1CCc2cc(OCCCCc3nnnn3C3CCCCC3)ccc2N1 [Compound D, Cilostazol] | 25 ± 2% | 58 ± 3%
O=C(O)/C=C/c1ccc(Cn2ccnc2)cc1 [Compound C, Ozagrel hydrochloride hydrate] | 25 ± 2% | 58 ± 5%

Same assay, conditions: MI Test 1, NOAEL doses; 7 Day; mean ± S.D.

Compound | % FS | EF (%)
CC#CCC(C)[C@H](O)/C=C/[C@@H]1[C@H]2c3cccc(CCCC(=O)O)c3O[C@H]2C[C@H]1O (mixture of isomers) [Compound F, Beraprost sodium] | 25 ± 3% | 58 ± 4%
O=C1CCc2cc(OCCCCc3nnnn3C3CCCCC3)ccc2N1 [Compound D, Cilostazol] | 24 ± 2% | 56 ± 3%
O=C(O)/C=C/c1ccc(Cn2ccnc2)cc1 [Compound C, Ozagrel hydrochloride hydrate] | 25 ± 3% | 57 ± 4%

Same assay, conditions: MI Test 1, NOAEL doses; 14 Day; mean ± S.D.

Compound | % FS | EF (%)
CC#CCC(C)[C@H](O)/C=C/[C@@H]1[C@H]2c3cccc(CCCC(=O)O)c3O[C@H]2C[C@H]1O (mixture of isomers) [Compound F, Beraprost sodium] | 23 ± 2% | 55 ± 3%
O=C1CCc2cc(OCCCCc3nnnn3C3CCCCC3)ccc2N1 [Compound D, Cilostazol] | 23 ± 3% | 54 ± 5%
O=C(O)/C=C/c1ccc(Cn2ccnc2)cc1 [Compound C, Ozagrel hydrochloride hydrate] | 24 ± 2% | 56 ± 3%

Same assay, conditions: MI Test 1, NOAEL doses; 29 Day; mean ± S.D.

Compound | % FS | EF (%)
CC#CCC(C)[C@H](O)/C=C/[C@@H]1[C@H]2c3cccc(CCCC(=O)O)c3O[C@H]2C[C@H]1O (mixture of isomers) [Compound F, Beraprost sodium] | 22 ± 2% | 52 ± 3%
O=C1CCc2cc(OCCCCc3nnnn3C3CCCCC3)ccc2N1 [Compound D, Cilostazol] | 20 ± 1% | 48 ± 3%
O=C(O)/C=C/c1ccc(Cn2ccnc2)cc1 [Compound C, Ozagrel hydrochloride hydrate] | 22 ± 2% | 52 ± 4%

Same assay, conditions: MI Test 2, Day 14 and Day 29

Compound | EF actual measured value and/or amount of change compared with control
CCCc1nn(C)c2c(=O)[nH]c(-c3cc(S(=O)(=O)N4CCN(C)CC4)ccc3OCC)nc12 [Compound I, Sildenafil citrate] | significantly higher

Same assay, conditions: MI Test 2, oral b.i.d. 4 weeks or single subcutaneous administration

Compound | Values of cardiac function (EF, FS %) compared with control
CCCc1nn(C)c2c(=O)[nH]c(-c3cc(S(=O)(=O)N4CCN(C)CC4)ccc3OCC)nc12 [Compound I, Sildenafil citrate] | significantly higher

Same assay, conditions: MI Test 2; 1 Day (grouping); B 150, G 5, I 30, C 10 mg/kg p.o. b.i.d.; B-MS 100, C-MS 50, F-MS 30 mg/kg s.c. single injection; mean ± S.D.

Compound | % FS | EF (%)
CCCc1nn(C)c2c(=O)[nH]c(-c3cc(S(=O)(=O)N4CCN(C)CC4)ccc3OCC)nc12 [Compound I, Sildenafil citrate] | 23.6 ± 1.6% | 55.4 ± 2.9%
COC(=O)c1ccc2c(c1)NC(=O)/C2=C(\Nc1ccc(N(C)C(=O)CN2CCN(C)CC2)cc1)c1ccccc1 [Compound G, Nintedanib ethanesulfonate] | 23.8 ± 2.1% | 55.7 ± 3.6%
CN(C)C(=O)COC(=O)Cc1ccc(OC(=O)c2ccc(NC(=N)N)cc2)cc1 [Compound B, Camostat mesilate] | 23.3 ± 1.5% | 54.8 ± 2.6%
O=C(O)/C=C/c1ccc(Cn2ccnc2)cc1 [Compound C, Ozagrel hydrochloride hydrate] | 23.5 ± 1.9% | 55.3 ± 3.4%

Same assay, conditions: MI Test 2; 14 Day; B 150, G 5, I 30, C 10 mg/kg p.o. b.i.d.; B-MS 100, C-MS 50, F-MS 30 mg/kg s.c. single injection; mean ± S.D.

Compound | % FS | EF (%)
CCCc1nn(C)c2c(=O)[nH]c(-c3cc(S(=O)(=O)N4CCN(C)CC4)ccc3OCC)nc12 [Compound I, Sildenafil citrate] | 20.8 ± 1.0% | 50.3 ± 1.8%
COC(=O)c1ccc2c(c1)NC(=O)/C2=C(\Nc1ccc(N(C)C(=O)CN2CCN(C)CC2)cc1)c1ccccc1 [Compound G, Nintedanib ethanesulfonate] | 20.3 ± 1.5% | 49.4 ± 2.8%
CN(C)C(=O)COC(=O)Cc1ccc(OC(=O)c2ccc(NC(=N)N)cc2)cc1 [Compound B, Camostat mesilate] | 21.0 ± 2.4% | 50.6 ± 4.4%
O=C(O)/C=C/c1ccc(Cn2ccnc2)cc1 [Compound C, Ozagrel hydrochloride hydrate] | 20.9 ± 0.9% | 50.4 ± 1.6%

Same assay, conditions: MI Test 2; 29 Day; B 150, G 5, I 30, C 10 mg/kg p.o. b.i.d.; B-MS 100, C-MS 50, F-MS 30 mg/kg s.c. single injection; mean ± S.D.

Compound | % FS | EF (%)
CCCc1nn(C)c2c(=O)[nH]c(-c3cc(S(=O)(=O)N4CCN(C)CC4)ccc3OCC)nc12 [Compound I, Sildenafil citrate] | 19.5 ± 1.4% | 47.7 ± 2.6%
COC(=O)c1ccc2c(c1)NC(=O)/C2=C(\Nc1ccc(N(C)C(=O)CN2CCN(C)CC2)cc1)c1ccccc1 [Compound G, Nintedanib ethanesulfonate] | 18.0 ± 0.6% | 44.7 ± 1.3%
CN(C)C(=O)COC(=O)Cc1ccc(OC(=O)c2ccc(NC(=N)N)cc2)cc1 [Compound B, Camostat mesilate] | 19.4 ± 2.5% | 47.5 ± 4.9%
O=C(O)/C=C/c1ccc(Cn2ccnc2)cc1 [Compound C, Ozagrel hydrochloride hydrate] | 18.2 ± 1.9% | 45.3 ± 3.7%
